# Data as given in PubChem BioAssay AID1224826 (NIAID, 2016).
# Screen: 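Regulators of Tlr4 signalling leading to Tnf-alpha expression in macrophages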 (primary screen)
# Cells: RAW264.7 G9 macrophages from mouse bearing reporters for p65 (GFP) and the Tnf promoter (mCherry)
# Reagents: siRNA pool against mouse genes, 100 nM
# Time to read-out: 16 h of LPS stimulation, after 2 days of siRNA transfection
# Challenge: bacterial lipopolysaccharide (Salmonella minnesota R595), 10 ng/ml
# Read-out: 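Nuclear mCherry signal of the Tnf promoter reporter measured by imaging after background removal, scaled to each plate median and turned into robust z-scores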
# Direction: Tnf reporter robust z-score: higher = stronger Tnf promoter reporter signal after LPS
# Rule for the call: 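a well counts as active at a score of -1.3 or below (Tlr4 knock-down control median) or above 3 (raised signal); controls and wells holding fewer than 50 cells are excluded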
# Meaning of the calls: active = Tnf reporter clearly lowered or raised; inactive = no clear change in Tnf reporter
# This is an unselected part of about 17,000 reagents. In the full data, about 1,110 (6.6%) got an active call. 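Active means lowered or raised reporter signal; replicate intensities are raw and not normalised per plate.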 Not all columns of the deposit are shown. No sequences are given here.
Target gene,PubChem SID,Tnf reporter robust z-score,fewer than 50 cells in well,activity call
Ca15 (carbonic anhydrase 15),SID315475714,-1.19,enough cells in well,inactive
Hspa12b (heat shock protein family A (Hsp70) member 12B),SID315474594,2.42,enough cells in well,inactive
Myct1 (myc target 1),SID315473590,-0.93,enough cells in well,inactive
Exo1 (exonuclease 1),SID315470475,-0.48,enough cells in well,inactive
Setd4 (SET domain containing 4),SID315478341,,fewer than 50 cells per well; well left out of calls,inactive
Rtn4ip1 (reticulon 4 interacting protein 1),SID315477201,-1.32,enough cells in well,active
"Plcb2 (phospholipase C, beta 2)",SID315468574,-0.26,enough cells in well,inactive
Elf1 (E74 like ETS transcription factor 1),SID315466481,-1.38,enough cells in well,active

Continued; the last 2 above are carried over.
Target gene,PubChem SID,Tnf reporter robust z-score,fewer than 50 cells in well,activity call
"Plcb2 (phospholipase C, beta 2)",SID315468574,-0.26,enough cells in well,inactive
Elf1 (E74 like ETS transcription factor 1),SID315466481,-1.38,enough cells in well,active
Bex1 (brain expressed X-linked 1),SID315468955,-0.76,enough cells in well,inactive
Inhba (inhibin beta-A),SID315467475,0.93,enough cells in well,inactive
"Mgat4b (mannoside acetylglucosaminyltransferase 4, isoenzyme B)",SID315476375,-0.71,enough cells in well,inactive
"Nr4a3 (nuclear receptor subfamily 4, group A, member 3)",SID315468206,-0.28,enough cells in well,inactive
"Rab4b (RAB4B, member RAS oncogene family)",SID315468859,0.04,enough cells in well,inactive
Bcl2l12 (BCL2 like 12),SID315475192,-1.37,enough cells in well,active
Cldn9 (claudin 9),SID315471707,-0.86,enough cells in well,inactive
Trhde (TRH-degrading enzyme),SID315479352,-0.89,enough cells in well,inactive
Nampt (nicotinamide phosphoribosyltransferase),SID315471961,0.38,enough cells in well,inactive
Ube3c (ubiquitin protein ligase E3C),SID315476249,7.99,enough cells in well,active
Kansl1l (KAT8 regulatory NSL complex subunit 1-like),SID315478548,-0.37,enough cells in well,inactive
Atrip (ATR interacting protein),SID315479277,,fewer than 50 cells per well; well left out of calls,inactive
Tacr2 (tachykinin receptor 2),SID315469568,-0.93,enough cells in well,inactive
Ctsq (cathepsin Q),SID315476406,-1.35,enough cells in well,active
Anapc10 (anaphase promoting complex subunit 10),SID315473694,-0.38,enough cells in well,inactive
Or1j17 (olfactory receptor family 1 subfamily J member 17),SID315480560,-0.59,enough cells in well,inactive
